# Data reported in PMC9578707.
# Results are given in words; binding and its absence hold for the method and conditions named.
# T1: PTPRJ ECD (human) (UniProt Q12913)
# T1 sequence (chain, biotin where captured on the streptavidin chip): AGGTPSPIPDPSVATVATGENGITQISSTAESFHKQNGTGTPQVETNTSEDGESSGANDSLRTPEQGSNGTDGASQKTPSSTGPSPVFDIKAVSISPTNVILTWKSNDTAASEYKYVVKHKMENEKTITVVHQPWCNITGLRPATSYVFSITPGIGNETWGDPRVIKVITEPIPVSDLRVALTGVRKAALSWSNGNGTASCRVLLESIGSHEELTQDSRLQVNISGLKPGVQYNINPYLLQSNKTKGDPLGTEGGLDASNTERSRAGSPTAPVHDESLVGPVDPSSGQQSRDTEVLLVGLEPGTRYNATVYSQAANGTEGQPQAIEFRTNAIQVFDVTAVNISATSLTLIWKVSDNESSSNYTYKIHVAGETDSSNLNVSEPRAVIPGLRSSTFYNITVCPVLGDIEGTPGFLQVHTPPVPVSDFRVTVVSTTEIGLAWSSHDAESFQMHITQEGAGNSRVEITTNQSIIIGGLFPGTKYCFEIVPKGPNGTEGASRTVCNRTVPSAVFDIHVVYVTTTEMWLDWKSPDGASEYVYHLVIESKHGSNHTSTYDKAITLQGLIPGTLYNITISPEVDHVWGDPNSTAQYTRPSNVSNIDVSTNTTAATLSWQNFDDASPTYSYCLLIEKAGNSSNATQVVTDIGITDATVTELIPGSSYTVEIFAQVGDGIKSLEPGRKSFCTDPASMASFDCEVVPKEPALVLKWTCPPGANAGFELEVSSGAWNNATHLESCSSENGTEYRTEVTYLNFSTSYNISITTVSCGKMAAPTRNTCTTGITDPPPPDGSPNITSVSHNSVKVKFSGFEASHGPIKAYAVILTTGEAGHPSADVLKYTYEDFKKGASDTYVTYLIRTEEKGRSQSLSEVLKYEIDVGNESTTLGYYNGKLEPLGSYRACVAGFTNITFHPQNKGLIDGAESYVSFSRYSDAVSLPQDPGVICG
# Molecular target: T1, PTPRJ ECD (human)
# Assay: SPR; Biacore T100; biotinylated receptor ECD or hit protein captured on a streptavidin chip (~100-200 RU), non-biotinylated secreted ligand as analyte in twofold dilutions; HBS-P+ buffer; 1:1 Langmuir model or equilibrium fit; both purified
binder,measurement,value
"Osteocrin (ligand, UniProt P61366 28-133, biotin (biotinylated in vitro with BirA) where used on beads) VDVTTTEAFDSGVIDVQSTPTVREEKSATDLTAKLLLLDELVSLENDVIETKKKRSFSGFGSPLDRLSAGSVDHKGKQRKVVDHPKRRFGIPMDRIGRNRLSNSRG",binding,no binding
